The target of the assay is T1, myc-tagged Ino2 (S. cerevisiae (endogenous locus, strains derived from CRY1)) (UniProt P26798).
T1 sequence: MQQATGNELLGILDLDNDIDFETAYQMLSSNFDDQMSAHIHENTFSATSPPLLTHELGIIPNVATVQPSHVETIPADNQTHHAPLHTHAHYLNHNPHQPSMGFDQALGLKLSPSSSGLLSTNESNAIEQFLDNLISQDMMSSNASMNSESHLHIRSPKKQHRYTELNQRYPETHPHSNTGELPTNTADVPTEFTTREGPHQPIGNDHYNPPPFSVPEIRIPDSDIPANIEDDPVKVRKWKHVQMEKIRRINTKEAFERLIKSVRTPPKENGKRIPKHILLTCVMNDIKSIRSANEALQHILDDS
The experiment in a line: co-IP; whole cell extract in IP buffer (50 mM Hepes-KOH pH 6.8, 150 mM potassium acetate, 2 mM magnesium acetate), 1% Triton X-100; anti-myc agarose 4 h at 4 °C, five washes; blot with anti-HA; cells grown with or without 1 μg/ml tunicamycin for 4.5 h.

Results are given in words; binding and its absence hold for the method and conditions named. In cells and extracts the contact can be indirect. Some entries that bind do so weakly or less than the wild type. Where a sequence is shown, tags or fusion partners need not be part of it.

B1: HA-tagged Ino4 (protein, UniProt P13902 1-151)
chain: MTNDIKEIQTIQPGLSEIKEIKGELANVKKRKRRSKKINKLTDGQIRINHVSSEKKRRELERAIFDELVAVVPDLQPQESRSELIIYLKSLSYLSWLYERNEKLRKQIIAKHEAKTGSSSSSDPVQEQNGNIRDLVPKELIWELGDGQSGQ
As for B1, the binding entry is on record as “binds”.

Values taken from publication PMC519002.
